Laboratory results from publication PMC11345394.
These are yes or no findings as the source states them, for the method shown. In cells and extracts the contact can be indirect. Some entries that bind do so weakly or less than the wild type. Each block holds one substance with its values, some of them ahead of it.

Protein sequences, listed by entry. Tags and fused reporters are not part of them. Lines headed by an entry give the natural chain unless they say otherwise; changes in a name come on top.
UniProt Q8N884: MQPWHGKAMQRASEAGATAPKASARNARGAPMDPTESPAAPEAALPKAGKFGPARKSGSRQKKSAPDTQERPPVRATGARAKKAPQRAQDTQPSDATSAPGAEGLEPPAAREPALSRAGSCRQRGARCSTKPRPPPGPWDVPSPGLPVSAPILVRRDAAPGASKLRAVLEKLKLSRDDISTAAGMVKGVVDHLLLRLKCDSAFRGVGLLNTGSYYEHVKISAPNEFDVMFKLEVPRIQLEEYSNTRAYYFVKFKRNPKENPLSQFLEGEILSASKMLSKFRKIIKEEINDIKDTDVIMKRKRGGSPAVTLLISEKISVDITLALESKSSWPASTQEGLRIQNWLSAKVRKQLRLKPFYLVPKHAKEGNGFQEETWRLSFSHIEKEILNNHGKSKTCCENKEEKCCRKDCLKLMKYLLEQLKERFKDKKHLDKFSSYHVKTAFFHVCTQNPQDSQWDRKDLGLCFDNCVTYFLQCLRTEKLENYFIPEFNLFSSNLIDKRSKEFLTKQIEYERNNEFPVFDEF
UniProt Q92793: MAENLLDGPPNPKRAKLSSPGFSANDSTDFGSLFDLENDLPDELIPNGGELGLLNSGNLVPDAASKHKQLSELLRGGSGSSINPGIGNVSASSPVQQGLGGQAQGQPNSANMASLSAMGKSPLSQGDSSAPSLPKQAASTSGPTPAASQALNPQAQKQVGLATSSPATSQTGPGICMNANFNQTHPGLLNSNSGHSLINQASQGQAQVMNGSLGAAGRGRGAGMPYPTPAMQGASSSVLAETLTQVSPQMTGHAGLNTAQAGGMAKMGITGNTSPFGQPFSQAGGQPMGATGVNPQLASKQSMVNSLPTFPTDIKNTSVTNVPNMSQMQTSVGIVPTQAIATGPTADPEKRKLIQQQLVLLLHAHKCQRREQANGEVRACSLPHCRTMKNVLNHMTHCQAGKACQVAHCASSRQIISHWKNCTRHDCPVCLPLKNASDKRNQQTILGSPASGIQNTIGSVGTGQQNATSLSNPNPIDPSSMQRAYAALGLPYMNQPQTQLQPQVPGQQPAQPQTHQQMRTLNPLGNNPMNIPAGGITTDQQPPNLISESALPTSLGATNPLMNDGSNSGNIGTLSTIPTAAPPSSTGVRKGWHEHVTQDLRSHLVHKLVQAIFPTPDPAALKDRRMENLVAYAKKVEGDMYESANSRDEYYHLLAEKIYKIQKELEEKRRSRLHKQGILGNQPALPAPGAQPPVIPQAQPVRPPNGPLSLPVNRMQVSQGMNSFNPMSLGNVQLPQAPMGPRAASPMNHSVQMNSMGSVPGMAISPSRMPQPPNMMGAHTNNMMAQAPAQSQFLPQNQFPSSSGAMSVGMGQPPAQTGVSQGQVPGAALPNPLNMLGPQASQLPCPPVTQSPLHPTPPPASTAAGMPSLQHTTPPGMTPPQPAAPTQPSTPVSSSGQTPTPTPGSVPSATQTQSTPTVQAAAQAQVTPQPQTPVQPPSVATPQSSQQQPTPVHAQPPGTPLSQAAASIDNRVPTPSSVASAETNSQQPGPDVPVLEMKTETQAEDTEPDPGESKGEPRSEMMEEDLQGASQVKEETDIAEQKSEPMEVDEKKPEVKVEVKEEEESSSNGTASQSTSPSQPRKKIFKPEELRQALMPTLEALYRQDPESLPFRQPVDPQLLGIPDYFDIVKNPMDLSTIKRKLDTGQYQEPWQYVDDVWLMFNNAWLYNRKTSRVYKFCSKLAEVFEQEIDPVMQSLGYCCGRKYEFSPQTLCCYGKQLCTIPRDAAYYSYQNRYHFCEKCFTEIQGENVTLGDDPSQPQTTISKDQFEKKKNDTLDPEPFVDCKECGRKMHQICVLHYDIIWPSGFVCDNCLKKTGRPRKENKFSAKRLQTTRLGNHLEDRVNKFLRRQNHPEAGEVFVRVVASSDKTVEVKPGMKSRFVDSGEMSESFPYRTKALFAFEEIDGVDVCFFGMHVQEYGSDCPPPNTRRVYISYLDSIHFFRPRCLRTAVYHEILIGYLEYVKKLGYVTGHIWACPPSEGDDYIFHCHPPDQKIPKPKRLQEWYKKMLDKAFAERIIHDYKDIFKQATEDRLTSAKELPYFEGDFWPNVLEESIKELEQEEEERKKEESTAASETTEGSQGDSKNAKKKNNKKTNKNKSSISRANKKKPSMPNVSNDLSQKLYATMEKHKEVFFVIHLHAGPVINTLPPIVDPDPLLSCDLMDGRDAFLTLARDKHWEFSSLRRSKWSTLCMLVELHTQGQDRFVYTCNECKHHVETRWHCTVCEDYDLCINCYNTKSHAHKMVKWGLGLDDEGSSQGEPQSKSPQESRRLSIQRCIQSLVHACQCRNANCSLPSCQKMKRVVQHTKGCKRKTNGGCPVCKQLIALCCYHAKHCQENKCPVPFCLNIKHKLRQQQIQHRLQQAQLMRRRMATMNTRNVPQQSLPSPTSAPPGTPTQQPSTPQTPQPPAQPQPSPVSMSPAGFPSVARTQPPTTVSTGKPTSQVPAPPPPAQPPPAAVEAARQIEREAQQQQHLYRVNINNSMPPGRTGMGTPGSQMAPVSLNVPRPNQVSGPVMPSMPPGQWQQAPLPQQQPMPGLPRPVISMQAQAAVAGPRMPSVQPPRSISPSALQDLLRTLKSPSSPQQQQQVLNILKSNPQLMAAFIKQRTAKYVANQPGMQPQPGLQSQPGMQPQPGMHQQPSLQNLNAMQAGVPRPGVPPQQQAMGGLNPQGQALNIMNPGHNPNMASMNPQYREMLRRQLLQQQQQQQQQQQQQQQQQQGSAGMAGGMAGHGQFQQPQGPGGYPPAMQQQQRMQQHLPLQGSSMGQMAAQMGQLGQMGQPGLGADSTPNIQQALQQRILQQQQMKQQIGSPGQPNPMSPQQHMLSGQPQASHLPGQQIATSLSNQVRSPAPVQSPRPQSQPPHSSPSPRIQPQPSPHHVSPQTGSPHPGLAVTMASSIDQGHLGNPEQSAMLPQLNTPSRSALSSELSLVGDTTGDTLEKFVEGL
UniProt P09874: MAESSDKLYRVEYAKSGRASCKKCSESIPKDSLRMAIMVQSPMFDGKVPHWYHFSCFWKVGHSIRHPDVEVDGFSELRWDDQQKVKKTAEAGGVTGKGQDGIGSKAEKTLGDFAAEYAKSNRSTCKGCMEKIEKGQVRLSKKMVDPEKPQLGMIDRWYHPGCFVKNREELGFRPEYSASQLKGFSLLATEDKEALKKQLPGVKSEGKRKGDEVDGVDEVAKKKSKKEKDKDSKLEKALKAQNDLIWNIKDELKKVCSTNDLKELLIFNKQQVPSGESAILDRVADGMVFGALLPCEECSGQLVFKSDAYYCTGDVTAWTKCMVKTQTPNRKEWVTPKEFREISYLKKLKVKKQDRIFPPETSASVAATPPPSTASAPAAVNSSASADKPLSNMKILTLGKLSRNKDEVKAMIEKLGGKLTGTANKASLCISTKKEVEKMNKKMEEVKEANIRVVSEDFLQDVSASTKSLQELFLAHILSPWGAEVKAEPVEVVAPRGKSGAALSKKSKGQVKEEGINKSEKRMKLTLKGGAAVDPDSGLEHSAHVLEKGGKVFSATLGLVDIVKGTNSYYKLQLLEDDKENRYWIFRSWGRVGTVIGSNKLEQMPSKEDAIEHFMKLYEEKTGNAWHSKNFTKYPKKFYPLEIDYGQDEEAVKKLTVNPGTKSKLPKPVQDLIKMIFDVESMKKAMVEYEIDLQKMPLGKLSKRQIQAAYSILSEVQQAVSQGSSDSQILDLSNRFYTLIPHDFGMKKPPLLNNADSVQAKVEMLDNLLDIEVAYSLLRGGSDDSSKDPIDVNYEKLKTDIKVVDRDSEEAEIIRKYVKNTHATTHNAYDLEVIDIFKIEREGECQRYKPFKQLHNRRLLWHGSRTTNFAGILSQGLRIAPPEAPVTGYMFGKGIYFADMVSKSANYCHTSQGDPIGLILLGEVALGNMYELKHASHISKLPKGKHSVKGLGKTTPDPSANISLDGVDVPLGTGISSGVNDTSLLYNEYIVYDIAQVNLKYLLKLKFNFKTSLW

Columns and labels:
Flag-cGAS K254R mutant = Flag-cGAS K254R mutant (UniProt Q8N884); experiment: co-IP; anti-Flag immunoprecipitates of HeLa cells transfected with Flag-cGAS constructs; partner detected by immunoblot; without and at the indicated times after 8 Gy γ-ray; NETN buffer (300 mM NaCl), 4 °C
full-length Flag-cGAS = full-length Flag-cGAS (UniProt Q8N884); experiment: as above
[1] = target: cyclic GMP-AMP synthase (cGAS), endogenous (human (endogenous in HeLa)) (UniProt Q8N884); experiment: co-IP; endogenous proteins from HeLa lysate, immunoprecipitated with anti-cGAS or anti-CBP antibody; NETN buffer (300 mM NaCl, 20 mM Tris-base, 1 mM EDTA, 0.5% NP-40), 4 °C, 6 h; immunoblot
[2] = target: CREB-binding protein (CBP), endogenous (human (endogenous in HeLa)) (UniProt Q92793); experiment: as above

binding (Flag-cGAS K254R mutant): binds
Substance: PARP1, endogenous (from UniProt P09874 1-1014)

binding (full-length Flag-cGAS): binds
binding [1]: binds
Substance: CREB-binding protein (CBP), endogenous (from UniProt Q92793 1-2442)

binding [2]: binds
Substance: cyclic GMP-AMP synthase (cGAS), endogenous (from UniProt Q8N884 1-522)
